Article PMC10870664
These are yes or no findings as the source states them, for the method shown. In cells and extracts the contact can be indirect. Some binding calls cover weakened binding; strength is not graded here.

Legend:
[1] = target: full-length p62 with a flag tag (HOMO-SQSTM1 -FLAG/His in plent) (human) (UniProt Q13501); experiment: co-IP; 293 T cells transfected for 48 h with pcDNA3.1, full-length p62-FLAG/His, △PB1 or △UBA; lysate precipitated with anti-flag antibody, western blot for FN1 and LAMC2
[2] = target: SQSTM1/p62 (human (endogenous in HUVEC)) (UniProt Q13501); experiment: co-IP; HUVEC lysate (IP lysis buffer with protease inhibitor) incubated overnight at 4 °C with anti-p62 antibody or rabbit IgG, protein agarose beads, four washes with PBS, western blot for FN1 and LAMC2

- binding [1]: binds
- binding [2]: binds
B1: Lamininγ2 (protein, UniProt Q13753 22-1193)
chain: TSRREVCDCNGKSRQCIFDRELHRQTGNGFRCLNCNDNTDGIHCEKCKNGFYRHRERDRCLPCNCNSKGSLSARCDNSGRCSCKPGVTGARCDRCLPGFHMLTDAGCTQDQRLLDSKCDCDPAGIAGPCDAGRCVCKPAVTGERCDRCRSGYYNLDGGNPEGCTQCFCYGHSASCRSSAEYSVHKITSTFHQDVDGWKAVQRNGSPAKLQWSQRHQDVFSSAQRLDPVYFVAPAKFLGNQQVSYGQSLSFDYRVDRGGRHPSAHDVILEGAGLRITAPLMPLGKTLPCGLTKTYTFRLNEHPSNNWSPQLSYFEYRRLLRNLTALRIRATYGEYSTGYIDNVTLISARPVSGAPAPWVEQCICPVGYKGQFCQDCASGYKRDSARLGPFGTCIPCNCQGGGACDPDTGDCYSGDENPDIECADCPIGFYNDPHDPRSCKPCPCHNGFSCSVMPETEEVVCNNCPPGVTGARCELCADGYFGDPFGEHGPVRPCQPCQCNNNVDPSASGNCDRLTGRCLKCIHNTAGIYCDQCKAGYFGDPLAPNPADKCRACNCNPMGSEPVGCRSDGTCVCKPGFGGPNCEHGAFSCPACYNQVKIQMDQFMQQLQRMEALISKAQGGDGVVPDTELEGRMQQAEQALQDILRDAQISEGASRSLGLQLAKVRSQENSYQSRLDDLKMTVERVRALGSQYQNRVRDTHRLITQMQLSLAESEASLGNTNIPASDHYVGPNGFKSLAQEATRLAESHVESASNMEQLTRETEDYSKQALSLVRKALHEGVGSGSGSPDGAVVQGLVEKLEKTKSLAQQLTREATQAEIEADRSYQHSLRLLDSVSRLQGVSDQSFQVEEAKRIKQKADSLSSLVTRHMDEFKRTQKNLGNWKEEAQQLLQNGKSGREKSDQLLSRANLAKSRAQEALSMGNATFYEVESILKNLREFDLQVDNRKAEAEEAMKRLSYISQKVSDASDKTQQAERALGSAAADAQRAKNGAGEALEISSEIEQEIGSLNLEANVTADGALAMEKGLASLKSEMREVEGELERKELEFDTNMDAVQMVITEAQKVDTRAKNAGVTIQDTLNTLDGLLHLMDQPLSVDEEGLVLLEQKLSRAKTQINSQLRPMMSELEERARQQRGHLHLLETSIDGILADVKNLENIRDNLPPGCYNTQALEQQ
